Record: PubChem BioAssay AID1159578 (Peter MacCallum Cancer Centre, 2015)
Shown is an unselected part of about 18,000 reagents tested. Of all reagents, about 1,030 (5.7%) got an active call. 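Inactive calls also include pools with fewer than 3300 nuclei, whose migration was not assessed.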 Raw values are not corrected between plates. A number with no mark means an inactive call. Not all columns of the deposit are shown. No sequences are given here.

- Assay: 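Knock-downs that alter how fast lymphatic endothelial cells migrate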 (primary screen)
- System: human lymphatic endothelial cells
- Knock-down reagent: siRNA pool against human genes, 40 nM
- Duration: 48 h after transfection
- Detection: 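Cells stained with dye and imaged after a scratch; covered wound area and nuclei counted, duplicates averaged, migration set against mock wells and turned into a robust z-score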
- Reading the numbers: migration robust z-score: higher = faster migration into the scratch; nuclei per well: higher = more cells in the well
- Call rule: 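Pools averaging fewer than 3300 nuclei are never called; remaining pools count as changed when migration robust z lies outside -2 to 2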
- Calls: active = migration changed; inactive = no migration change, or too few cells

Gene	migration robust z-score	nuclei per well, duplicate mean
SP2 (Sp2 transcription factor)	0.9	5606
LHX9 (LIM homeobox 9)	-0.4	4466
CD2 (CD2 molecule)	0.23	6665
OR2J3 (olfactory receptor family 2 subfamily J member 3)	-0.86	4551
KDM1B (lysine demethylase 1B)	-0.32	6437
OVCH1 (ovochymase 1)	-0.24	5975
MTFR1L (mitochondrial fission regulator 1 like)	0.82	5722
IPO4 (importin 4)	0.86	6358
LRRC75A (leucine rich repeat containing 75A)	0.1	6446
TPT1 (tumor protein, translationally-controlled 1)	-1.54	4668
HPS1 (HPS1 biogenesis of lysosomal organelles complex 3 subunit 1)	1.5	5494
AQP3 (aquaporin 3 (Gill blood group))	-0.62	3151
G6PC2 (glucose-6-phosphatase catalytic subunit 2)	0.54	6118
ECM1 (extracellular matrix protein 1)	-0.42	6570
DUSP23 (dual specificity phosphatase 23)	-1.01	4708
MRAP (melanocortin 2 receptor accessory protein)	-0.08	6076
CCDC142 (coiled-coil domain containing 142)	0.28	5539
DPPA5 (developmental pluripotency associated 5)	0.65	6390
GPATCH3 (G-patch domain containing 3)	0.21	5800
CELF4 (CUGBP Elav-like family member 4)	-0.78	4970
MOSPD1 (motile sperm domain containing 1)	-0.23	5402
FOXC1 (forkhead box C1)	0.39	5888
OR2K2 (olfactory receptor family 2 subfamily K member 2)	-0.41	6190
UBE2L6 (ubiquitin conjugating enzyme E2 L6)	0	4784
MPC2	-0.13	6200
NCALD (neurocalcin delta)	-0.34	5812
BRI3 (brain protein I3)	-0.26	6146
BIRC6 (baculoviral IAP repeat containing 6)	2.13 (active)	5277
PEMT (phosphatidylethanolamine N-methyltransferase)	-0.34	5842
ZNF610 (zinc finger protein 610)	-1.53	5336
STK36 (serine/threonine kinase 36)	-2.1 (active)	4158
LIMCH1 (LIM and calponin homology domains 1)	1.02	6212
PARG (poly(ADP-ribose) glycohydrolase)	-0.88	3576
EDC4 (enhancer of mRNA decapping 4)	-1.5	6422
ZBTB11 (zinc finger and BTB domain containing 11)	-1.42	4952
GATAD2B (GATA zinc finger domain containing 2B)	-0.88	3978
IKZF4 (IKAROS family zinc finger 4)	-0.18	5622
CD163L1 (CD163 molecule like 1)	-0.18	6946
PRICKLE1 (prickle planar cell polarity protein 1)	0.46	5394

Records above whose target name begins with P or p (3):
Gene	migration robust z-score	nuclei per well, duplicate mean
PEMT (phosphatidylethanolamine N-methyltransferase)	-0.34	5842
PARG (poly(ADP-ribose) glycohydrolase)	-0.88	3576
PRICKLE1 (prickle planar cell polarity protein 1)	0.46	5394
